# Laboratory results from the supplement of paper PMC3682954.
# Counter-ions that a name gives are not always drawn. ± gives the standard deviation of the averaged measurements. The list shows a part of the results. Repeats are few or missing, and single values can be far off.
# Test system: RAW 264.7
# Assay: HMGB1-induced TNF-alpha production relative to HMGB1-stimulated control; higher = more TNF-alpha secretion (less inhibition)
# Conditions: stimulus: HMGB1 5 ug/ml, 18 h
# [1] = compound concentration: 1 ug/ml
SMILES,HMGB1-induced TNF-alpha production (compound concentration: 3 uM) [%],HMGB1-induced TNF-alpha production [1] [%]
COc1ccc2cc([C@@H](C)C(=O)O)ccc2c1 [(R) -Naproxen sodium salt],101,–
CC(C)NCC(O)COc1cccc2ccccc12 (stereo not drawn) [Propranolol],103,–
CCN1CCCC1CN=Cc1c(O)c(O)c(C(C)C)c2cc(C)c(-c3c(C)cc4c(C(C)C)c(O)c(O)c(C=NCC5CCCN5CC)c4c3O)c(O)c12 (stereo not drawn),–,82.2
CC(C)C[C@H](NC(=O)[C@H]1O[C@@H]1C(=O)O)C(=O)NCCCCN=C(N)N,106,–
CC1(C)NC(=O)N(c2ccc([N+](=O)[O-])c(C(F)(F)F)c2)C1=O,75.8,–
CC1(C)NC(=O)N(c2ccc([N+](=O)[O-])c(C(F)(F)F)c2)C1=O [Nilutamide],109 ± 10,–
CCCCCCc1ccc(O)cc1O,94.2,–
CCCCC(CC)CNC(=N)NC(=N)NCCCCCCNC(=N)NC(=N)NCC(CC)CCCC (stereo not drawn) [Alexidine dihydrochloride],46.8,–
COC(=O)[C@@H]1[C@H]2C[C@H]3c4[nH]c5ccccc5c4CCN3C[C@@H]2CC[C@@H]1O [Yohimbine HCl],88.7,–
COC(=O)[C@@H]1[C@H]2C[C@H]3c4[nH]c5ccccc5c4CCN3C[C@@H]2CC[C@@H]1O,82.5,–
COC(=O)[C@@H]1[C@H]2C[C@H]3c4[nH]c5ccccc5c4CCN3C[C@@H]2CC[C@@H]1O [Yohimbine hydrochloride],99.6 ± 7.2,–
C=C(C)[C@@H]1CC=C(C(=O)O)CC1,90.5,–
C=C(C)[C@@H]1CC=C(C(=O)O)CC1 [(S)-(-)-Perillic acid],–,87.1
C=C(C)[C@@H]1CC=C(C(=O)O)CC1 [(-)-Perillic acid],109,–
Oc1c2ccccc2c2c3c(cccc13)N=N2,99.9,–
O=C1CCc2cc(OCCCCc3nnnn3C3CCCCC3)ccc2N1 [Cilostazol],97.7 ± 22,–
O=C1CCc2cc(OCCCCc3nnnn3C3CCCCC3)ccc2N1,105,–
CCS(=O)(=O)CCn1c([N+](=O)[O-])cnc1C [Tinidazole],103 ± 16,–
CCS(=O)(=O)CCn1c([N+](=O)[O-])cnc1C,92.7 ± 11,–
"COc1cc(OC)c2c(c1)OC(c1ccccc1)CC2=O (stereo not drawn) [5,7-Dimethoxyflavanone]",–,67.9
CCCCOc1cc(C(=O)NCCN(CC)CC)c2ccccc2n1,76.6,–

# Fetched one by one from the list above:
SMILES,HMGB1-induced TNF-alpha production (compound concentration: 3 uM) [%],HMGB1-induced TNF-alpha production [1] [%]
CCS(=O)(=O)CCn1c([N+](=O)[O-])cnc1C [Tinidazole],103 ± 16,–
C=C(C)[C@@H]1CC=C(C(=O)O)CC1,90.5,–

# (cont.)

SMILES,HMGB1-induced TNF-alpha production (compound concentration: 3 uM) [%],HMGB1-induced TNF-alpha production [1] [%]
CCCCOc1cc(C(=O)NCCN(CC)CC)c2ccccc2n1 [Dibucaine],89.5,–
"O=C(O)[C@H]1C[C@H](C(=O)O)N1 (relative stereo) [trans-Azetidine-2,4-dicarboxylic acid]",91.9,–
CC[C@H]1OC(=O)[C@H](C)C(=O)[C@H](C)[C@@H](O[C@@H]2O[C@H](C)C[C@H](N(C)C)[C@H]2O)[C@](C)(OC)C[C@@H](C)C(=O)[C@H](C)[C@H]2N(CCCCn3cnc(-c4cccnc4)c3)C(=O)O[C@]12C,98.4 ± 3.9,–
O=P(O)(O)C(Cl)(Cl)P(=O)(O)O [Clodronic acid],104,–
O=P(O)(O)C(Cl)(Cl)P(=O)(O)O [Clodronate],103 ± 9.3,–
CCC1=C(C)CN(C(=O)NCCc2ccc(S(=O)(=O)NC(=O)N[C@H]3CC[C@H](C)CC3)cc2)C1=O,90.4,–
CCC1=C(C)CN(C(=O)NCCc2ccc(S(=O)(=O)NC(=O)N[C@H]3CC[C@H](C)CC3)cc2)C1=O [Glimepiride],98.2 ± 2.4,–
CCCCn1c(=O)c2c(ncn2CC(C)=O)n(CCCC)c1=O [Denbufylline],59.7,–
COc1ccc2cc1Oc1ccc(cc1)C[C@H]1c3cc(c(OC)cc3CCN1C)Oc1c(OC)c(OC)cc3c1[C@H](C2)N(C)CC3,87.4,–
"COc1ccc2cc1Oc1ccc(cc1)C[C@H]1c3cc(c(OC)cc3CCN1C)Oc1c(OC)c(OC)cc3c1[C@H](C2)N(C)CC3 [(S,S)-(+)-Tetrandrine]",–,87.8
CN1CCC(OC(c2ccccc2)c2ccccc2)CC1,93,–
CN1CCC(OC(c2ccccc2)c2ccccc2)CC1 [Diphenylpyraline hydrochloride],99.2,–
O=C(Oc1cccc2cccnc12)c1ccccc1,73,–
C/C=C1\[C@H]2C=C(C)C[C@]1(N)c1ccc(=O)[nH]c1C2,98.6,–
C[N+](C)(C)CCO.[Cl-],78.9,–
"Nc1ccc2c3c(cccc13)C(=O)NC2=O [4-Amino-1,8-naphthalimide]",94.3,–
Clc1ccc(Nc2nnc(Cc3ccncc3)c3ccccc23)cc1 [Vatalanib],87.3 ± 2.2,–
Cc1cc(O)c2c(c1)C(=O)c1cc(O)cc(O)c1C2=O [Emodin],98,57.5
OCC1OC(Oc2ccc3c(c2)OC[C@H]2c4cc5c(cc4O[C@@H]32)OCO5)C(O)C(O)C1O (stereo partly drawn),–,75.5
CN(C/C=C/C#CC(C)(C)C)Cc1cccc2ccccc12 [Terbinafine],70.6,–
O=c1[nH]cnc2c1ncn2[C@H]1CC[C@@H](CO)O1,98.3,–
